Assay results: the supplement of paper PMC7661543
Differences between knockout arms are mostly noise.

Tested on: MDA-MB-231
Assay: relative cell number vs DMSO control (72 h) (% of DMSO); higher = less growth inhibition (more cells)
Protocol: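 QMAP-Seq: a pool of 5 breast cancer cell lines (ZR-75-1, SKBR3, HCC-38, MDA-MB-231, BT-20), each carrying 12 doxycycline-inducible Cas9 sgRNA perturbations (11 knockouts plus non-targeting sgNT), was treated with compounds for 72 h at four 10-fold doses (10 nM-10 uM or 1 nM-1 uM range). Barcodes were amplified and sequenced, and cell number was interpolated from 293T spike-in standard curves. The result is expressed as % of the median of DMSO wells. Two biological replicates.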

CC/C(=C(\c1ccc(O)cc1)c1ccc(OCCN(C)C)cc1)c1ccccc1 [4-Hydroxytamoxifen]
Conditions	relative cell number
sgRNA knockout: sgATF3, 10 nM	99.1
sgRNA knockout: sgATF3, 100 nM	78.6
sgRNA knockout: sgATF3, 1000 nM	108
sgRNA knockout: sgATF3, 10000 nM	70.3
sgRNA knockout: sgATF4, 10 nM	91.4
sgRNA knockout: sgATF4, 100 nM	75.3
sgRNA knockout: sgATF4, 1000 nM	86
sgRNA knockout: sgATF4, 10000 nM	44.6
sgRNA knockout: sgATF6, 10 nM	87.5
sgRNA knockout: sgATF6, 100 nM	76.1
sgRNA knockout: sgATF6, 1000 nM	109
sgRNA knockout: sgATF6, 10000 nM	69.9
sgRNA knockout: sgATG7, 10 nM	99.6
sgRNA knockout: sgATG7, 100 nM	90.1
sgRNA knockout: sgATG7, 1000 nM	92.6
sgRNA knockout: sgATG7, 10000 nM	66
sgRNA knockout: sgERN1, 10 nM	101
sgRNA knockout: sgERN1, 100 nM	98
sgRNA knockout: sgERN1, 1000 nM	96.6
sgRNA knockout: sgERN1, 10000 nM	68.1
sgRNA knockout: sgHSF1, 10 nM	84.1
sgRNA knockout: sgHSF1, 100 nM	82.23
sgRNA knockout: sgHSF1, 1000 nM	114
sgRNA knockout: sgHSF1, 10000 nM	63.2
sgRNA knockout: sgHSF2, 10 nM	97.9
sgRNA knockout: sgHSF2, 100 nM	94
sgRNA knockout: sgHSF2, 1000 nM	92.48
sgRNA knockout: sgHSF2, 10000 nM	52
sgRNA knockout: sgKEAP1, 10 nM	118
sgRNA knockout: sgKEAP1, 100 nM	86.7
sgRNA knockout: sgKEAP1, 1000 nM	96.3
sgRNA knockout: sgKEAP1, 10000 nM	44.7
sgRNA knockout: sgNFE2L2, 10 nM	99.3
sgRNA knockout: sgNFE2L2, 100 nM	75.6
sgRNA knockout: sgNFE2L2, 1000 nM	92.6
sgRNA knockout: sgNFE2L2, 10000 nM	67.9
sgRNA knockout: sgSLC35F2, 10 nM	81
sgRNA knockout: sgSLC35F2, 100 nM	103
sgRNA knockout: sgSLC35F2, 1000 nM	72.2
sgRNA knockout: sgSLC35F2, 10000 nM	64.2
sgRNA knockout: sgXBP1, 10 nM	84.2
sgRNA knockout: sgXBP1, 100 nM	111
sgRNA knockout: sgXBP1, 1000 nM	82.3
sgRNA knockout: sgXBP1, 10000 nM	61.1

COc1cc(OC)c(/C=C/S(=O)(=O)Cc2ccc(OC)c(NCC(=O)O)c2)c(OC)c1 [Rigosertib]
Conditions	relative cell number
sgRNA knockout: sgATF3, 10 nM	107
sgRNA knockout: sgATF3, 100 nM	72.1
sgRNA knockout: sgATF3, 1000 nM	25.7
sgRNA knockout: sgATF3, 10000 nM	17.5
sgRNA knockout: sgATF4, 10 nM	104.3
sgRNA knockout: sgATF4, 100 nM	67.9
sgRNA knockout: sgATF4, 1000 nM	41.8
sgRNA knockout: sgATF4, 10000 nM	22.6
sgRNA knockout: sgATF6, 10 nM	83.2
sgRNA knockout: sgATF6, 100 nM	60.9
sgRNA knockout: sgATF6, 1000 nM	37.7
sgRNA knockout: sgATF6, 10000 nM	25
sgRNA knockout: sgATG7, 10 nM	92.49
sgRNA knockout: sgATG7, 100 nM	51.5
sgRNA knockout: sgATG7, 1000 nM	25.2
sgRNA knockout: sgATG7, 10000 nM	23.7
sgRNA knockout: sgERN1, 10 nM	93.3
sgRNA knockout: sgERN1, 100 nM	69.9
sgRNA knockout: sgERN1, 1000 nM	29.6
sgRNA knockout: sgERN1, 10000 nM	17.7
sgRNA knockout: sgHSF1, 10 nM	77.6
sgRNA knockout: sgHSF1, 100 nM	58.8
sgRNA knockout: sgHSF1, 1000 nM	32
sgRNA knockout: sgHSF1, 10000 nM	26.3
sgRNA knockout: sgHSF2, 10 nM	83.6
sgRNA knockout: sgHSF2, 100 nM	73.1
sgRNA knockout: sgHSF2, 1000 nM	38.5
sgRNA knockout: sgHSF2, 10000 nM	21.6
sgRNA knockout: sgKEAP1, 10 nM	112
sgRNA knockout: sgKEAP1, 100 nM	54.8
sgRNA knockout: sgKEAP1, 1000 nM	24.8
sgRNA knockout: sgKEAP1, 10000 nM	17
sgRNA knockout: sgNFE2L2, 10 nM	98.3
sgRNA knockout: sgNFE2L2, 100 nM	69.2
sgRNA knockout: sgNFE2L2, 1000 nM	28.3
sgRNA knockout: sgNFE2L2, 10000 nM	24
sgRNA knockout: sgSLC35F2, 10 nM	128
sgRNA knockout: sgSLC35F2, 100 nM	60.9
sgRNA knockout: sgSLC35F2, 1000 nM	22.1
sgRNA knockout: sgSLC35F2, 10000 nM	22.1
sgRNA knockout: sgXBP1, 10 nM	110
sgRNA knockout: sgXBP1, 100 nM	74.9
sgRNA knockout: sgXBP1, 1000 nM	22.7
sgRNA knockout: sgXBP1, 10000 nM	21.6

Cc1ccc(Nc2nccc(N(C)c3ccc4c(C)n(C)nc4c3)n2)cc1S(N)(=O)=O [Pazopanib]
Conditions	relative cell number
sgRNA knockout: sgATF3, 10 nM	98.4
sgRNA knockout: sgATF3, 100 nM	101
sgRNA knockout: sgATF3, 1000 nM	85.6
sgRNA knockout: sgATF3, 10000 nM	54.5
sgRNA knockout: sgATF4, 10 nM	114.4
sgRNA knockout: sgATF4, 100 nM	86.9
sgRNA knockout: sgATF4, 1000 nM	115
sgRNA knockout: sgATF4, 10000 nM	51.8
sgRNA knockout: sgATF6, 10 nM	97.7
sgRNA knockout: sgATF6, 100 nM	108
sgRNA knockout: sgATF6, 1000 nM	84.9
sgRNA knockout: sgATF6, 10000 nM	55.2
sgRNA knockout: sgATG7, 10 nM	95.3
sgRNA knockout: sgATG7, 100 nM	91.1
sgRNA knockout: sgATG7, 1000 nM	96.2
sgRNA knockout: sgATG7, 10000 nM	59.8
sgRNA knockout: sgERN1, 10 nM	105
sgRNA knockout: sgERN1, 100 nM	73.6
sgRNA knockout: sgERN1, 1000 nM	85.4
sgRNA knockout: sgERN1, 10000 nM	60
sgRNA knockout: sgHSF1, 10 nM	97.7
sgRNA knockout: sgHSF1, 100 nM	79.1
sgRNA knockout: sgHSF1, 1000 nM	95.7
sgRNA knockout: sgHSF1, 10000 nM	44.9
sgRNA knockout: sgHSF2, 10 nM	115
sgRNA knockout: sgHSF2, 100 nM	115
sgRNA knockout: sgHSF2, 1000 nM	94.1
sgRNA knockout: sgHSF2, 10000 nM	68.8
sgRNA knockout: sgKEAP1, 10 nM	97.8
sgRNA knockout: sgKEAP1, 100 nM	95.7
sgRNA knockout: sgKEAP1, 1000 nM	85
sgRNA knockout: sgKEAP1, 10000 nM	58.2
sgRNA knockout: sgNFE2L2, 10 nM	91.489
sgRNA knockout: sgNFE2L2, 100 nM	84.78
sgRNA knockout: sgNFE2L2, 1000 nM	81.14
sgRNA knockout: sgNFE2L2, 10000 nM	67.6
sgRNA knockout: sgSLC35F2, 10 nM	118
sgRNA knockout: sgSLC35F2, 100 nM	99.1
sgRNA knockout: sgSLC35F2, 1000 nM	104
sgRNA knockout: sgSLC35F2, 10000 nM	58.6
sgRNA knockout: sgXBP1, 10 nM	99.1
sgRNA knockout: sgXBP1, 100 nM	101
sgRNA knockout: sgXBP1, 1000 nM	99.5
sgRNA knockout: sgXBP1, 10000 nM	69.4
